Patent publication US7786106B2, “Substituted benzene derivatives or salts thereof” (Astellas Pharma Inc., priority 2003, dated 2010)
Structures can show the parent of a compound that is named as a salt. For some assays here: At least one compound was matched to its structure with a doubt left. Some of these results come from one statement about several compounds together.

Protein sequences, listed by entry. Tags and fused reporters are not part of them. Residues count along the entry.
UniProt P00742, 41-179 partner limits assumed: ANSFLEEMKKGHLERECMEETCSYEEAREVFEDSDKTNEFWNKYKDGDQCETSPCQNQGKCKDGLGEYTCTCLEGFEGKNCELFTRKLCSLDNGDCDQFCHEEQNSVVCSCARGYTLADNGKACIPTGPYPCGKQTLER
UniProt P00742, 235-488 limits assumed: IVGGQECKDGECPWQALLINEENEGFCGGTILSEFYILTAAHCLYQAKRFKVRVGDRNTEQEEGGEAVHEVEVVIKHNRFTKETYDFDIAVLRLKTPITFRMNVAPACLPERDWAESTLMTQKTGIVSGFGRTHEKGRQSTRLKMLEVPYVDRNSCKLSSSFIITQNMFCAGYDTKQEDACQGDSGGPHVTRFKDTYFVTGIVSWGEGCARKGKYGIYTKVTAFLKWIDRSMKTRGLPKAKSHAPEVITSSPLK

Tests used:
Bovine Thrombin = molecular target: T1, Bovine Thrombin (Bos taurus, UniProt P00735); assay: In vitro test on measurement of coagulation time by bovine thrombin (human plasma); assay type: biochemical; conditions: CT2 = concentration by which the coagulation time is prolonged 2-fold; human blood plasma
T1 construct: 500 units of Thrombin (derived from bovine; Mochida Pharmaceutical); purchased Mochida Pharmaceutical

human factor Xa = molecular target: T2, human factor Xa (Homo sapiens, UniProt P00742); assay: In vitro test on measurement of coagulation time by human activated blood coagulation factor X (human plasma); assay type: biochemical
T2 construct: purchased Enzyme Research Labs
Protocol: 1) An In Vitro Test on Measurement of Coagulation Time by Human Activated Blood Coagulation Factor X
To 90 μl of human blood plasma were added 10 μl of a drug or a physiological saline and 50 μl of human factor Xa (Enzyme Research Labs), incubation was carried out at 30° C. for 3 minutes, 100 μl of 20 mM CaCl2 previously warmed at 37° C. were added and the time until coagulation was measured by a coagulo-meter (KC10 of Amelung). With regard to the human blood plasma, each 45 ml of blood were collected from vein of elbow of six healthy persons using a syringe in which 5 ml of 3.8% sodium citrate were contained and centrifuged at 4° C. for 15 minutes at 3,000 rpm and the separate blood plasma was pooled and frozen, then thawed before use. With regard to the human factor Xa, the concentration by which the coagulation time when a physiological saline solution (control) was added was about 30 to 40 seconds was selected. A CT2 value (concentration by which the coagulation time is prolonged to an extent of 2-fold) was determined by plotting the drug concentrations and relative value (fold) of the coagulation time to the control, followed by subjecting to linear regression.

[1] = system: extrinsic coagulation time (PT); assay: Ex vivo measurement of coagulation time in cynomolgus monkeys (oral administration), extrinsic coagulation time (PT); conditions: same dose as control (10 mg/kg)
Protocol: 4) Test on Ex Vivo Measurement of Coagulation Time in Cynomolgus Monkeys (Oral Administration)
A drug (5 mg/ml or 0.5 mg/ml) which was dissolved (suspended) in 0.5% methylcellulose was compulsorily administered per os at a dose of 2 ml/kg (10 mg/kg or 1 mg/kg) via an oral gavage after blood collection before the administration of the drug to a male cynomolgus monkeys (body weight around 4 kg) fasted for 12 hours or longer and, after 1, 2, 4, 6 and 8 hour(s), 2 ml of blood was collected from femoral vein using 1/10 volume of 3.8% sodium citrate and blood plasma was separated by means of centrifugal treatment of 3,000 rpm for 10 minutes. Using the resulting blood plasma, extrinsic coagulation time (PT) and intrinsic coagulation time (APTT) were measured in accordance with the following methods a) and b). The experiment was carried out under non-anesthetization.
a) Extrinsic Coagulation Time (PT)
Ortho Brain Thromboplastin (54 mg/vial; a freeze-dried preparation; Ortho-Clinical Diagnostics) was dissolved in 2.5 ml of Milli-Q water and preliminarily warmed at 37° C. The above-separated blood plasma (50 μl) was warmed at 37° C. for 1 minute, 50 μl of the above-mentioned thromboplastin solution was added and the coagulation time was measured. KC10 of Amelung was used for the measurement of the coagulation time.

SMILES | CT2 value, coagulation time by bovine thrombin (Bovine Thrombin) [µM] | Test on Measurement of Coagulation Time by Human Activated Blood Coagulation Factor X (CT2) (human factor Xa; CT2 = concentration by which the coagulation time is prolonged 2-fold, human blood plasma) [µM] | anti-blood coagulation action (extension of coagulation time), in words (human factor Xa; in vitro, human plasma) | extending action for the coagulation time compared with control (Example 44 of WO 00/39118) [1]
CC(C)N1CCC(C(=O)Nc2c(O)cc(Cl)cc2C(=O)Nc2ccc(Cl)cn2)CC1 [Example 18, 4′-chloro-2′-[(5-chloro-2-pyridyl)carbamoyl]-6′-hydroxy-1-isopropylpiperidine-4-carboxanilide hydrochloride] | ≥ 100 | – | – | –
CC(C)N1CCC(CNc2c(O)cc(Cl)cc2C(=O)Nc2ccc(Cl)cn2)CC1 [Example 10] | ≥ 100 | – | – | –
CC(=O)N[C@H]1[C@H](Oc2cc(Br)cc(C(=O)Nc3ccc(Cl)cn3)c2NC(=O)C2CCN(C(C)C)CC2)O[C@H](CO)[C@@H](O)[C@@H]1O [Example 3, 2′-(2-acetamido-2-deoxy-β-D-glucopyranosyloxy)-4′-bromo-6′-[(5-chloro-2-pyridyl)-carbamoyl]-1-isopropylpiperidine-4-carboxanilide trifluoroacetate] | – | 0.062 | extend the coagulation time at low concentration | longer extending action for the coagulation time
